Experimental data published in publication PMC6950750, “Newly Discovered Action of HpTx3 from Venom of Heteropoda venatoria on Nav1.7 and Its Pharmacological Implications in Analgesia” (Toxins, 2019).

Tested on: C57BL/6 mice, acetic acid-induced writhing model
Type: in vivo, mouse (C57BL/6)
Settings: morphine 1 mg/kg i.p.; 30 min; control 40.3; n = 8
Description: Healthy female C57BL/6 mice (weighting 18–20 g) that were used for analgesic activity assay were obtained from the Experimental Animal Center of SLac-kinda (Changsha, China) and were randomly assigned to five groups, each group generally containing 8 mice. […] The mice were maintained at a temperature of 20–25 °C and under a 12 h light/12 h dark cycle, with free access to food and water. The ethical approval for the in vivo animal experiments was obtained from the Animal Care and Use Committee of the Hunan Province Animal Management Office. (The approval code: 219/2019).

For CN1CC[C@]23c4c5ccc(O)c4O[C@H]2[C@@H](O)C=C[C@H]3[C@H]1C5 [morphine], the “average abdominal writhing number” value was 16.8.
